Experimental data as given in the supplement of paper PMC10849652.
Some of the results follow. Residues, ends and D or L forms follow the SMILES beside them. *: point of attachment. Cbz = O=C(OCc1ccccc1)*

The chains behind the UniProt entries cited, without tags or fusion partners. Where a name states a change or a piece, a line headed by the entry shows the natural chain unless it says otherwise.
UniProt Q3T8J9: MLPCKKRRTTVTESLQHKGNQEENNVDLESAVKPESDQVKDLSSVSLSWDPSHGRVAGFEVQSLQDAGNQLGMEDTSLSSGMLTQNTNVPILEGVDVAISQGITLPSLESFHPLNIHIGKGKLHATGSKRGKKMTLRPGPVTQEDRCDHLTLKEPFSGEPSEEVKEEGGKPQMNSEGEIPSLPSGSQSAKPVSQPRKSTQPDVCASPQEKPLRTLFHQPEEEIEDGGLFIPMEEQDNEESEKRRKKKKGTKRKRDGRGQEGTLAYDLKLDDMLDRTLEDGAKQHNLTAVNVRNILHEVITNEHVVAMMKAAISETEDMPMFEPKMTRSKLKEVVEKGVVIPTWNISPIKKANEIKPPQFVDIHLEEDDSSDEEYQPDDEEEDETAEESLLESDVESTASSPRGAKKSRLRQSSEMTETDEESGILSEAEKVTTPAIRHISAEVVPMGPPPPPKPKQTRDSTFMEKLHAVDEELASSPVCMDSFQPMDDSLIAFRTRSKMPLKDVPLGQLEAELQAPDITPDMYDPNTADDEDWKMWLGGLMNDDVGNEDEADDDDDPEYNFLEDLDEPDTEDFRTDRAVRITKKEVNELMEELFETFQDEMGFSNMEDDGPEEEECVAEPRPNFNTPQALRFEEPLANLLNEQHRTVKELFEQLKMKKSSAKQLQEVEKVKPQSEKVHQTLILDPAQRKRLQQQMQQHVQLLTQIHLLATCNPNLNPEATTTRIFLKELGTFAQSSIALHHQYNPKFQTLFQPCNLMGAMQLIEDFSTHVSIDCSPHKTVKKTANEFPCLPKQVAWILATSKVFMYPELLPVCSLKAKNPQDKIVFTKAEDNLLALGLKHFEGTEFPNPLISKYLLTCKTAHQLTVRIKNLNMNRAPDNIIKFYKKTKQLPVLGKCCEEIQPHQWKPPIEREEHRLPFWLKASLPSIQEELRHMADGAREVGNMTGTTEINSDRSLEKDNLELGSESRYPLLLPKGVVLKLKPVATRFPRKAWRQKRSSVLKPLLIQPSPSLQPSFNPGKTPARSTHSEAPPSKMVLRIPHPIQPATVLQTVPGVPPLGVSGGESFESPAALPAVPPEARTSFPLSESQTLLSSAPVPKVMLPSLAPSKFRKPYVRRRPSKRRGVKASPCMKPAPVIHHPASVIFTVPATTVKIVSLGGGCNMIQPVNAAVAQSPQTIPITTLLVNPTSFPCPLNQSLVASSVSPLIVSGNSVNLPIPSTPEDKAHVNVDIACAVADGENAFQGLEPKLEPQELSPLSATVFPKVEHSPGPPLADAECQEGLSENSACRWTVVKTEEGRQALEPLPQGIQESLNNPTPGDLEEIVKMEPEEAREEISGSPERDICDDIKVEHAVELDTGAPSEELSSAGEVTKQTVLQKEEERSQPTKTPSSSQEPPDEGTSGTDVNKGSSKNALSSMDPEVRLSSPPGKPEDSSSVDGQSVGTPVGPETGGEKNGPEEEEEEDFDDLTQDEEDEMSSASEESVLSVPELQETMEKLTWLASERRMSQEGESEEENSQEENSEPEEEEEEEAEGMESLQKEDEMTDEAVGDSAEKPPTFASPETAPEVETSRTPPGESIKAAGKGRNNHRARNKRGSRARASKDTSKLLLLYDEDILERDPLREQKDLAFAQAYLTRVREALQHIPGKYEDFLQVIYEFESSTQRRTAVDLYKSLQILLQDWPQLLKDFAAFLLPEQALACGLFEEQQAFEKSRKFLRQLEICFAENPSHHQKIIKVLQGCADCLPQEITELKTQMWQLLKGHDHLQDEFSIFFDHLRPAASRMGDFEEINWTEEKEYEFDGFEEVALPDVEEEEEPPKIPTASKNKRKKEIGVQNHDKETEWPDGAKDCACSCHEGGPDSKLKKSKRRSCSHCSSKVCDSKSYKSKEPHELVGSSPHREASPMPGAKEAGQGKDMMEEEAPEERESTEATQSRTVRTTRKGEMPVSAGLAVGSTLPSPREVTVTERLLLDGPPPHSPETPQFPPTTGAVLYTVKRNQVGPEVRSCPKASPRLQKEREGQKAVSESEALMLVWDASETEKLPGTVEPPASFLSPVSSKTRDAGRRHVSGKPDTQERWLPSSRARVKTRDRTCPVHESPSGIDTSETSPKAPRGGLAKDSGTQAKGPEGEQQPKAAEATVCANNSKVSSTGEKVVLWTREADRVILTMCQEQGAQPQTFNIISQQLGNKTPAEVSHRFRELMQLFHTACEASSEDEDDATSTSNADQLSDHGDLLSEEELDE
UniProt Q9P107: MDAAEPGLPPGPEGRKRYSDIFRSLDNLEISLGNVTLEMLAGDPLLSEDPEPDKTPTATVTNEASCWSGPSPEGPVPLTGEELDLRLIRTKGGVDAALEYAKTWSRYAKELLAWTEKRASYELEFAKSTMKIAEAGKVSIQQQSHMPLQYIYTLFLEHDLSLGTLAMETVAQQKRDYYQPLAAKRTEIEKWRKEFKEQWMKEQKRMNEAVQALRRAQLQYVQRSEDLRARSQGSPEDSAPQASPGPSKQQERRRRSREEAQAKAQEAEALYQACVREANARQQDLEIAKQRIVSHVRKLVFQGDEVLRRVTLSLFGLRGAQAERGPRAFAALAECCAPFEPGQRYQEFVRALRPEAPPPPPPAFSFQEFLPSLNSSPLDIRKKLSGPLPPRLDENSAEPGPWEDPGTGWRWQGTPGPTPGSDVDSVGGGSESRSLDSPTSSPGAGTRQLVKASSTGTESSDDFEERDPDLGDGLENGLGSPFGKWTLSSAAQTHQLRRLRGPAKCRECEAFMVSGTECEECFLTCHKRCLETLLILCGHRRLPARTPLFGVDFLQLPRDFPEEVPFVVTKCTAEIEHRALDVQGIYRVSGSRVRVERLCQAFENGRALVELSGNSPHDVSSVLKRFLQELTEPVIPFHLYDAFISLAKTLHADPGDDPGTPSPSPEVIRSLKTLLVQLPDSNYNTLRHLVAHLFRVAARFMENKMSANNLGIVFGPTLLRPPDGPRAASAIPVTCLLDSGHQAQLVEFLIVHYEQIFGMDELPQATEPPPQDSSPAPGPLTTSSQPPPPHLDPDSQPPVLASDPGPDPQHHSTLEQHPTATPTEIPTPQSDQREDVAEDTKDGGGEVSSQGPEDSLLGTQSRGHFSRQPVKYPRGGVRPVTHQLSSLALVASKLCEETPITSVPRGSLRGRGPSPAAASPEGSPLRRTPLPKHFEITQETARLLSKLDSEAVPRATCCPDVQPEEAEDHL
UniProt Q9UKD1: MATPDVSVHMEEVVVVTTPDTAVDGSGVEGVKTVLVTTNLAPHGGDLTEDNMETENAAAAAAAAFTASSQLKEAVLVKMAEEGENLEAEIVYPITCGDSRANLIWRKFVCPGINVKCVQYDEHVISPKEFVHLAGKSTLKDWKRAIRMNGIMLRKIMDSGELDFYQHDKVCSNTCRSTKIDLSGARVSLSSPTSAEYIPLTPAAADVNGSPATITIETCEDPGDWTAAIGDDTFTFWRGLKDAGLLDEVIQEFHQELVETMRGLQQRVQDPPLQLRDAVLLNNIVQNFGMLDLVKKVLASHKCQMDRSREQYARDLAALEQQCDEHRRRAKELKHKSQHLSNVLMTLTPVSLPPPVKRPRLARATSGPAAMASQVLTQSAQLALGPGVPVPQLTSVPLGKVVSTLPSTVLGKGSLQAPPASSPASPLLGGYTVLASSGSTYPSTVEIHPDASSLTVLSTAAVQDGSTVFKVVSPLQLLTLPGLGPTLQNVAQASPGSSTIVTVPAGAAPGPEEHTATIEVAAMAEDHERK
UniProt Q9Y248: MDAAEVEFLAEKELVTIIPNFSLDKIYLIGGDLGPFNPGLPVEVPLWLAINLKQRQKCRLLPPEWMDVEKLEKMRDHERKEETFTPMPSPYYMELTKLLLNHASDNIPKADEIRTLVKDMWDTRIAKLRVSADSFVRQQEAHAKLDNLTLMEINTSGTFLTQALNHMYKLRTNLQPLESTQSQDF
UniProt Q13227: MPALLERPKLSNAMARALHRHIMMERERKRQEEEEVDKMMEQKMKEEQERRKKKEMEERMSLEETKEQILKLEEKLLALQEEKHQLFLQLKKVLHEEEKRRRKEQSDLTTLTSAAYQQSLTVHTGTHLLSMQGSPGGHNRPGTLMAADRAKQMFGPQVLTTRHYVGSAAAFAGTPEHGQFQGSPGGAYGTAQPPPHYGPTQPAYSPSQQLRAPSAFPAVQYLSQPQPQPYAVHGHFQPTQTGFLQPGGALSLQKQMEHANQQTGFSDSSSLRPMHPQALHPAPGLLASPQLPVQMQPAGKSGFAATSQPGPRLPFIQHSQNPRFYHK
UniProt P16278: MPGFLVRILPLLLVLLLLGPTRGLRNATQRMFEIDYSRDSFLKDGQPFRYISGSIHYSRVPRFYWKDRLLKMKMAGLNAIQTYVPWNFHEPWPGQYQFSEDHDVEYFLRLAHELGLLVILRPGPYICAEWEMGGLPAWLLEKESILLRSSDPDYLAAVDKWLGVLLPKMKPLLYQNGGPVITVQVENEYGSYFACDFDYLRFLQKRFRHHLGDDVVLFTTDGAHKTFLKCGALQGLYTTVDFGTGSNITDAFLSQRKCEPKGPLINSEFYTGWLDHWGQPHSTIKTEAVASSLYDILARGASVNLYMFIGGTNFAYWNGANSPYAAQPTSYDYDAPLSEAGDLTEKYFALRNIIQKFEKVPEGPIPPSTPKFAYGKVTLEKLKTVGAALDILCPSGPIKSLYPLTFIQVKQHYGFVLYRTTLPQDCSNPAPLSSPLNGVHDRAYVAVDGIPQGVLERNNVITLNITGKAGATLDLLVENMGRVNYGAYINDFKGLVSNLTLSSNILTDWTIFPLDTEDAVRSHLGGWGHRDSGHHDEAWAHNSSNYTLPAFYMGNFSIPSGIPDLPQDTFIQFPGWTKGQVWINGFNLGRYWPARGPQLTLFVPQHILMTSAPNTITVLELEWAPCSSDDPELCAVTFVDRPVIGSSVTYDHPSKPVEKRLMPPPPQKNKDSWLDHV
UniProt O15228: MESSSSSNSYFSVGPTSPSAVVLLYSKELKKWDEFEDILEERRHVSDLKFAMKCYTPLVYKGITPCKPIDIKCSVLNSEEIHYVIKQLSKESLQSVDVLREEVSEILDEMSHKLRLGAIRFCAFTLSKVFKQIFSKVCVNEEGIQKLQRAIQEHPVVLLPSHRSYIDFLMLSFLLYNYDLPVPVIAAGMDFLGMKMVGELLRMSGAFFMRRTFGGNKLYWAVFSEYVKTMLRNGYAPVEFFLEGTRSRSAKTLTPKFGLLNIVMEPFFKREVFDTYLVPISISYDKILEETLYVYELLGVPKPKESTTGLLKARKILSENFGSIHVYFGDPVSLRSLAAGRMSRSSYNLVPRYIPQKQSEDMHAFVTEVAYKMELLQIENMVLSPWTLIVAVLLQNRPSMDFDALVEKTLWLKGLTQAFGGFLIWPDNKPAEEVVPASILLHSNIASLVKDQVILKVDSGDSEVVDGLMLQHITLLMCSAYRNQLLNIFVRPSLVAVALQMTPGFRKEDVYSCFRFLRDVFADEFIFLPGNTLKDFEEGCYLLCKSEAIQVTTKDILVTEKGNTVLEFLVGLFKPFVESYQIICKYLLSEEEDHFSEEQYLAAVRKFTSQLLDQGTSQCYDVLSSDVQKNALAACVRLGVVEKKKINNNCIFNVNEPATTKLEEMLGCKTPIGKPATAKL
UniProt Q86UL3: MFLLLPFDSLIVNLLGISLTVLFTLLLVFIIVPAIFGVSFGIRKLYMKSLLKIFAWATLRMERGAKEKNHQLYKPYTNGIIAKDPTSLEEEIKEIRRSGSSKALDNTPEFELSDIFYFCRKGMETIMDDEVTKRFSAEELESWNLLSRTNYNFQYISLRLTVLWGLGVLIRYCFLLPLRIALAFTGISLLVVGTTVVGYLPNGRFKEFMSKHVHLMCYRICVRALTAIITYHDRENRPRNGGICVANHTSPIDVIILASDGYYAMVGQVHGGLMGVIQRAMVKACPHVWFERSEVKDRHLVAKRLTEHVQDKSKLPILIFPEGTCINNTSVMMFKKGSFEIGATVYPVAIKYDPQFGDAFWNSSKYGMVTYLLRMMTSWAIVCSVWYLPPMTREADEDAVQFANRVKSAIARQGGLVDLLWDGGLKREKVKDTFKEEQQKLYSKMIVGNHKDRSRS
UniProt Q6ZS86: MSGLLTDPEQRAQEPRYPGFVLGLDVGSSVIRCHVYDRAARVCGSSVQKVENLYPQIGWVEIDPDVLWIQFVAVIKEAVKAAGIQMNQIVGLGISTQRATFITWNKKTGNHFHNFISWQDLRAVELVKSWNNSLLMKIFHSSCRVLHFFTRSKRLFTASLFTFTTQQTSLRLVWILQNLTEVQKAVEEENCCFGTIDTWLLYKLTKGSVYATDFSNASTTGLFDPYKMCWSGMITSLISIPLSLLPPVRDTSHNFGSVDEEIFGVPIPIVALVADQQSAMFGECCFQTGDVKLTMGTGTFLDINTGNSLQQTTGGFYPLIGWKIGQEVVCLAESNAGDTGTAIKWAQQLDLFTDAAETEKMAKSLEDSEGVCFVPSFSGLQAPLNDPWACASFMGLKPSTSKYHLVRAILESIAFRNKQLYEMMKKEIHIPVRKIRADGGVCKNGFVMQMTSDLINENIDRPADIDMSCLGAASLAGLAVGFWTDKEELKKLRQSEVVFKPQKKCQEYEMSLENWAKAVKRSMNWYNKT

Tests used:
Experiment in all cases: log2 fold change, soluble protein after heating vs DMSO (PISA); higher = thermal stabilisation; K562 cells, 10 uM, 30 min; active = over 0.2 and 3.5 SD of the protein, either way, in both replicates (recomputed)
IRAK-1-4 Inhibitor I = compound: C1COCCN1CCN2C3=CC=CC=C3N=C2NC(=O)C4=CC(=CC=C4)[N+](=O)[O-] [IRAK-1-4 Inhibitor I]
Summary of the method: (§1)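 Quantification of soluble protein used TMTpro 16plex LC-MS/MS, with channel sums equalised. Samples were the supernatant after 21,000xg for 90 min of pooled aliquots from K562 cells (2×10^6 cells/mL) treated with 10 μM compound for 30 min, heated for 3 min over 48°C-58°C, and extracted in PBS with 0.5% NP-40 at 4°C. Values, from duplicates, describe thermal stability against control samples on a log2 fold-change scale.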

ibrutinib = compound: C=CC(=O)N1CCC[C@@H](n2nc(-c3ccc(Oc4ccccc4)cc3)c3c(N)ncnc32)C1 [ibrutinib]
Summary of the method: as §1

[1] = compound: CC(=O)c1cnc2ccc(-c3cc(Cl)c(O)c(Cl)c3)nc2c1N[C@H]1CC[C@H](CN(C)C)CC1
Summary of the method: as §1

ralimetinib = compound: CC(C)(C)Cn1c(N)nc2ccc(-c3[nH]c(C(C)(C)C)nc3-c3ccc(F)cc3)nc21 [ralimetinib]
Summary of the method: as §1

[2] = compound: CC(C)(O)CC(=O)NCCn1ccc2ncnc(Nc3ccc(Oc4cccc(C(F)(F)F)c4)c(Cl)c3)c21
Summary of the method: as §1

[3] = compound: CC(C)C1=C2N=C(C=C(N2N=C1)NCC3=CC=CC=C3)NCCCCCCN
Summary of the method: as §1

[4] = compound: CC(C)C[C@@H](C=O)NC(=O)[C@H](CC(C)C)NC(=O)[C@H](CC(C)C)NC(=O)OCc1ccccc1
Summary of the method: as §1

pinometostat = compound: CC(C)N(C[C@H]1O[C@@H](n2cnc3c(N)ncnc32)[C@H](O)[C@@H]1O)[C@H]1C[C@@H](CCc2nc3cc(C(C)(C)C)ccc3[nH]2)C1 [pinometostat]
Summary of the method: as §1

[5] = compound: CC1=C(C2=C(C=C1)C(=O)C3=CC=CC=C3N2CCCN)C
Summary of the method: as §1

[6] = compound: CC1=C(C=C(C=C1)NC(=O)C2=CC(=CC=C2)C(C)(C)C#N)NC3=CC4=C(C=C3)N=CN(C4=O)C
Summary of the method: as §1

[7] = compound: CC1=C(C=C(C=C1)NC(=O)C2=CC(=CC=C2)N(C)C)NC(=O)C3=CC=C(C=C3)O
Summary of the method: as §1

[8] = compound: CC1=CC=C(C=C1)SC2=C3C=C(SC3=CN=C2)C(=O)N
Summary of the method: as §1

[9] = compound: CC1=NC(=CC=C1)C2=C(N=C(N2)C(C)(C)C)C3=CC4=NC=CN=C4C=C3
Summary of the method: as §1

Nexturastat A = compound: CCCCN(Cc1ccc(C(=O)NO)cc1)C(=O)Nc1ccccc1 [Nexturastat A]
Summary of the method: as §1

vemurafenib = compound: CCCS(=O)(=O)Nc1ccc(F)c(C(=O)c2c[nH]c3ncc(-c4ccc(Cl)cc4)cc23)c1F [vemurafenib]
Summary of the method: as §1

[10] = compound: CCCS(=O)(=O)Nc1ccc(F)c(C(=O)c2c[nH]c3ncc(Cl)cc23)c1F
Summary of the method: as §1

[11] = compound: CCCc1cc(C)[nH]c(=O)c1CNC(=O)c1cc(-c2ccnc(N3CCN(C)CC3)c2)cc2c1cnn2C(C)C
Summary of the method: as §1

givinostat = compound: CCN(CC)Cc1ccc2cc(COC(=O)Nc3ccc(C(=O)NO)cc3)ccc2c1 [givinostat]
Summary of the method: as §1

barasertib = compound: CCN(CCCOc1ccc2c(Nc3cc(CC(=O)Nc4cccc(F)c4)[nH]n3)ncnc2c1)CCOP(=O)(O)O [barasertib]
Summary of the method: as §1

[12] = compound: CC1=C(C(CC(=O)N1)C2=CC=C(C=C2)C(F)(F)F)C(=O)NC3=C(C=C4C(=C3)C=NN4)F
Summary of the method: as §1

Target | log2 fold change (IRAK-1-4 Inhibitor I) | log2 fold change (ibrutinib) | log2 fold change [1] | log2 fold change (ralimetinib) | log2 fold change [2] | log2 fold change [3] | log2 fold change [4] | log2 fold change (pinometostat) | log2 fold change [5] | log2 fold change [6] | log2 fold change [7] | log2 fold change [8] | log2 fold change [9] | log2 fold change (Nexturastat A) | log2 fold change (vemurafenib) | log2 fold change [10] | log2 fold change [11] | log2 fold change (givinostat) | log2 fold change (barasertib) | log2 fold change [12]
GLS (UniProt O94925) | inactive: 0.051 | inactive: -0.096 | inactive: 0.002 | inactive: -0.071 | inactive: -0.14 | inactive: 0.004 | inactive: 0.032 | inactive: -0.037 | inactive: 0.002 | inactive: -0.013 | inactive: -0.072 | inactive: -0.024 | inactive: 0.034 | inactive: -0.065 | inactive: 0.096 | inactive: 0.132 | inactive: 0.062 | inactive: 0.041 | inactive: 0.054 | 
GON4L (UniProt Q3T8J9) | inactive: 0.07 | inactive: 0.134 | inactive: 0.208 |  | inactive: -0.172 |  |  | inactive: -0.022 | inactive: 0.056 | inactive: -0.009 |  | inactive: -0.104 | inactive: 0.036 | inactive: 0.002 |  | inactive: 0.002 | inactive: -0.381 |  | inactive: -0.083 | inactive: -0.015
GLS isoform 3 (UniProt O94925) | inactive: 0.011 | inactive: -0.15 | inactive: -0.046 | inactive: -0.19 | active: -0.547 | inactive: -0.034 | inactive: -0.04 | inactive: -0.088 | inactive: -0.068 | inactive: 0.004 | inactive: -0.119 | inactive: -0.01 | inactive: 0.167 | inactive: 0.087 | inactive: 0.155 | inactive: 0.236 | inactive: 0.061 | inactive: 0.031 | inactive: 0.061 | 
GMIP (UniProt Q9P107) | inactive: 0.084 | inactive: 0.123 |  | inactive: 0.067 | inactive: -0.048 | inactive: -0.215 | inactive: 0.074 | inactive: 0.058 | inactive: 0.023 | inactive: -0.113 | inactive: -0.099 |  | inactive: -0.021 | inactive: 0.157 |  |  |  | inactive: 0.087 | inactive: -0.068 | inactive: -0.014
GLA (UniProt P06280) | inactive: 0.034 | inactive: 0.026 | inactive: -0.031 | inactive: -0.05 | inactive: -0.052 | inactive: -0.199 | inactive: 0.015 | inactive: 0.02 | inactive: -0.051 | inactive: -0.016 | inactive: 0.027 | inactive: -0.001 | inactive: 0.011 | inactive: 0.005 | inactive: -0.009 | inactive: -0.038 | inactive: -0.039 | inactive: 0.04 | inactive: 0.005 | 
GOLGA6B (UniProt A6NDN3) | inactive: -0.034 | inactive: 0.013 |  |  | inactive: 0.025 | inactive: 0.165 |  | inactive: -0.137 |  | inactive: -0.035 |  |  | inactive: 0.033 | inactive: -0.099 | active: 0.882 |  | inactive: -0.113 | inactive: 0.002 | inactive: 0.011 | 
GMEB2 (UniProt Q9UKD1) | inactive: -0.021 | inactive: 0.061 | inactive: -0.022 | inactive: 0.018 | inactive: -0.158 | inactive: 0.006 | inactive: -0.128 | inactive: 0.145 | active: -0.367 | inactive: 0.038 | inactive: -0.033 | inactive: 0.041 | inactive: -0.066 | inactive: 0.09 | inactive: 0.012 | inactive: 0.041 | inactive: -0.088 | inactive: 0.087 | inactive: 0.029 | 
GLYR1 (UniProt Q49A26) | inactive: -0.067 | inactive: -0.074 | inactive: 0.054 | inactive: 0.088 | inactive: 0.093 | inactive: -0.057 | inactive: 0.09 | inactive: 0.111 | inactive: -0.016 | inactive: 0.039 | inactive: 0.032 | inactive: -0.125 | inactive: -0.06 | active: 0.375 | inactive: 0.054 | inactive: 0.009 | inactive: 0.085 | inactive: 0.091 | inactive: 0.136 | 
GINS2 (UniProt Q9Y248) | inactive: 0 | inactive: -0.033 |  | inactive: 0.024 | inactive: -0.02 | inactive: -0.081 | inactive: -0.042 | inactive: -0.067 | inactive: 0.113 | inactive: 0.136 | inactive: -0.168 | inactive: 0.099 | inactive: 0.147 | inactive: 0.174 | inactive: 0.102 | inactive: 0.029 | inactive: 0.021 | inactive: -0.038 | inactive: 0.053 | 
GMEB1 (UniProt Q9Y692) | inactive: -0.033 | inactive: -0.031 | inactive: -0.021 | inactive: 0.01 | inactive: -0.039 | inactive: -0.044 | inactive: -0.031 | inactive: 0.022 | active: -0.297 | inactive: 0.088 | inactive: 0.041 | inactive: 0.04 | inactive: 0.014 | inactive: -0.041 | inactive: -0.048 | inactive: 0.154 | inactive: 0.047 | inactive: 0.058 | inactive: 0.008 | 
GPS2 (UniProt Q13227) | inactive: -0.013 | inactive: -0.006 |  | inactive: -0.19 | inactive: -0.052 | inactive: 0.027 | inactive: -0.069 | inactive: 0.019 | inactive: -0.135 | inactive: -0.13 | inactive: -0.04 | inactive: -0.17 | inactive: -0.013 | active: -0.316 | inactive: 0.019 | inactive: -0.01 | inactive: 0.026 | inactive: -0.145 | inactive: -0.008 | 
GNL1 (UniProt P36915) | inactive: 0.07 | inactive: 0.037 | inactive: 0.046 | inactive: 0.011 | inactive: -0.063 | inactive: -0.03 | inactive: -0.014 | inactive: -0.006 | inactive: -0.086 | inactive: 0.019 | inactive: -0.014 | inactive: 0.032 | inactive: 0.036 | inactive: -0.031 | inactive: -0.01 | inactive: 0.081 | inactive: 0.002 | inactive: -0.033 | inactive: 0.017 | 
GIT2 (UniProt Q14161) | inactive: -0.187 | inactive: -0.038 | inactive: -0.108 |  | inactive: 0.053 | inactive: -0.166 |  | inactive: 0.035 |  |  |  | inactive: -0.085 | inactive: 0.104 | inactive: 0.143 |  | inactive: 0.223 | inactive: -0.144 | inactive: 0.265 | inactive: -0.122 | inactive: 0.244
GLB1 (UniProt P16278) | inactive: 0.041 | inactive: 0.033 | inactive: -0.005 | inactive: -0.009 | inactive: 0.048 | active: -0.282 | inactive: 0.062 | inactive: 0.021 | inactive: -0.015 | inactive: -0.051 | inactive: -0.026 | inactive: -0.033 | inactive: -0.038 | inactive: 0.086 | inactive: -0.017 | inactive: -0.007 | inactive: 0.003 | inactive: 0.002 | inactive: -0.027 | 
GNPAT (UniProt O15228) | inactive: 0.026 | inactive: -0.007 | inactive: -0.017 | inactive: 0.02 | inactive: -0.053 | inactive: -0.018 | inactive: -0.014 | inactive: -0.018 | inactive: 0.024 | inactive: -0.03 | inactive: -0.046 | inactive: 0.007 | inactive: 0 | inactive: -0.039 | inactive: 0.023 | inactive: 0.045 | inactive: 0.03 | inactive: 0.022 | inactive: 0.044 | 
GNS (UniProt P15586) | inactive: 0.023 | inactive: -0.011 | inactive: 0.011 | inactive: -0.04 | inactive: 0.065 | inactive: -0.079 | inactive: 0.025 | inactive: -0.025 | inactive: -0.01 | inactive: -0.021 | inactive: 0.112 | inactive: 0.044 | inactive: 0.026 | inactive: -0.03 | inactive: 0.023 | inactive: -0.005 | inactive: 0.003 | inactive: 0.011 | inactive: -0.004 | 
GPAT4 (UniProt Q86UL3) | inactive: -0.144 | inactive: -0.081 | inactive: 0.044 | inactive: -0.058 | inactive: -0.09 | inactive: 0.145 | inactive: 0.007 | inactive: -0.029 | inactive: 0.047 | inactive: 0.05 | inactive: -0.004 | inactive: 0.014 | inactive: -0.004 | inactive: -0.004 | inactive: 0.036 | inactive: 0.027 | inactive: 0.019 | inactive: -0.024 | inactive: 0.027 | 
GK5 (UniProt Q6ZS86) | inactive: -0.051 | inactive: -0.155 | inactive: -0.043 | inactive: -0.172 | inactive: 0.091 |  | inactive: 0.144 | inactive: -0.055 | inactive: 0.008 |  | inactive: 0.068 | inactive: -0.078 | inactive: 0.004 | inactive: -0.002 | inactive: 0.055 | inactive: 0.108 |  |  | inactive: -0.074 | 

Some entries already given with just log2 fold change [6].
Target	log2 fold change [6]
GMEB2 (UniProt Q9UKD1)	inactive: 0.038
GLYR1 (UniProt Q49A26)	inactive: 0.039
